Reference: PMC5825159
These are yes or no findings as the source states them, for the method shown. Binding seen in cells or lysates may run through a third protein. Some entries that bind do so weakly or less than the wild type. For some of these results: Sequences can lack the tags named with a protein.

By UniProt entry, the sequences of proteins in these tests, tags left out.
UniProt P35582: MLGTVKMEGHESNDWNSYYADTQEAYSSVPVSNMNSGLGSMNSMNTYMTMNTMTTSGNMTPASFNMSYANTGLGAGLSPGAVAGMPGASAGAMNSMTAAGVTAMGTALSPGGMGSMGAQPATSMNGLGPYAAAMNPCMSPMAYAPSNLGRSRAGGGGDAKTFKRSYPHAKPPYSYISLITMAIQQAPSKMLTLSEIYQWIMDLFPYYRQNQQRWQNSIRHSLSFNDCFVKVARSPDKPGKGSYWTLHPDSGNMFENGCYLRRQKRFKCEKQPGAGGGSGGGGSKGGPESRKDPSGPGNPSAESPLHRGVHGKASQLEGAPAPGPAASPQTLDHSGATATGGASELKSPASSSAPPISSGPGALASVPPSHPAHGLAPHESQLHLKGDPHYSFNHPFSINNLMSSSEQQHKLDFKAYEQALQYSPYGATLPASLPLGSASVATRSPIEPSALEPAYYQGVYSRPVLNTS
UniProt P48432: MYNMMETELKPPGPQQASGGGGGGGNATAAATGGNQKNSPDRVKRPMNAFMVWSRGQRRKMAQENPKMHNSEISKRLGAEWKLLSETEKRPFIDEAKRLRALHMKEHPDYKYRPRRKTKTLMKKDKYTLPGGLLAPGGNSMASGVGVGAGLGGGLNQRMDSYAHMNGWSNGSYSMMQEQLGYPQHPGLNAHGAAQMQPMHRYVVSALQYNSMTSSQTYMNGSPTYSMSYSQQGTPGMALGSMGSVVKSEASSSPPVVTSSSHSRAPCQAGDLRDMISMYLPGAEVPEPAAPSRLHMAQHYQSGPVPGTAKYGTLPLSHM

How the values were obtained:
ZEB1-flag [1] = biological target: T1, ZEB1-flag (UniProt Q64318); test: co-IP; HEK293 cells co-transfected with 5 ug of each expression vector; lysate incubated with Flag antibody bound beads 2h at 4°C; eluted with 3xFlag peptide; Myc-tagged SOX2 forms analysed; no DNase I
T1 sequence: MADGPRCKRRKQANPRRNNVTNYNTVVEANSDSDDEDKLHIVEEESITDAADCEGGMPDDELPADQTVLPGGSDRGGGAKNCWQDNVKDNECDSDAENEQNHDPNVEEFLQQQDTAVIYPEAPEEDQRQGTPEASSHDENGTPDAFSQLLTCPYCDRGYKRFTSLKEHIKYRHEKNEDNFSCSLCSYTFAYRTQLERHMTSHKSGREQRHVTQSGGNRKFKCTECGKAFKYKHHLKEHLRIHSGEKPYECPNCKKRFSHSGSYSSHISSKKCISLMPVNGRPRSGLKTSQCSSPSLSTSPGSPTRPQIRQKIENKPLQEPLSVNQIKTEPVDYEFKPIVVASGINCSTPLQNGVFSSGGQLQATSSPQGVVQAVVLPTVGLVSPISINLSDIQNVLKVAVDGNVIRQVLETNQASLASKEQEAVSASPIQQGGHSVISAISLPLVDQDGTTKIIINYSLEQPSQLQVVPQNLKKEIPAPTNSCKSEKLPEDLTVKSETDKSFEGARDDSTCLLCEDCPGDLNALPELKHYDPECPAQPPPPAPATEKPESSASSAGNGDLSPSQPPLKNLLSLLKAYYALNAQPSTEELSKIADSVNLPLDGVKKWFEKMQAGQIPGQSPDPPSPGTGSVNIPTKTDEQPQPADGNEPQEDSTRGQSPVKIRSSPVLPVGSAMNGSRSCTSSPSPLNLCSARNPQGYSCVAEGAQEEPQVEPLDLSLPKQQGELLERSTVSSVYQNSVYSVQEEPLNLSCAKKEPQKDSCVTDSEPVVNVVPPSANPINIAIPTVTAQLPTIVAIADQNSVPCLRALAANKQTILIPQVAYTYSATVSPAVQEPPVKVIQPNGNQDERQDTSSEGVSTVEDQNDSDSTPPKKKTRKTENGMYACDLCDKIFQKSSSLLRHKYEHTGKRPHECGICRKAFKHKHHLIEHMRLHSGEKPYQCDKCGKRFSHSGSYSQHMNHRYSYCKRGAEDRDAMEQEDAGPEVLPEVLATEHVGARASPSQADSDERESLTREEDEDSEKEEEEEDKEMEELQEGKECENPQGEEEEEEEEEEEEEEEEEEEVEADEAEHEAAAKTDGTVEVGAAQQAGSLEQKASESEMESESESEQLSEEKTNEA

FOXA1-flag [2] = biological target: FOXA1-flag (UniProt P35582); test: as above
ZEB1-flag [3] = biological target: T1, ZEB1-flag; test: co-IP; as the co-IP from HEK293 lysate on Flag antibody bound beads, but 100U/ml DNase I added to the lysate for 30 min at 4°C before immunoprecipitation
FOXA1-flag [4] = biological target: FOXA1-flag (UniProt P35582); test: as above

Measured: binding

Myc-tagged full-length SOX2 (from UniProt P48432 1-319)
binds: ZEB1-flag [1] | FOXA1-flag [2] | ZEB1-flag [3] | FOXA1-flag [4]
